This is an account of results in publication PMC5897330.

Amino acid sequences for entries named in this document (tags omitted).
UniProt P04792: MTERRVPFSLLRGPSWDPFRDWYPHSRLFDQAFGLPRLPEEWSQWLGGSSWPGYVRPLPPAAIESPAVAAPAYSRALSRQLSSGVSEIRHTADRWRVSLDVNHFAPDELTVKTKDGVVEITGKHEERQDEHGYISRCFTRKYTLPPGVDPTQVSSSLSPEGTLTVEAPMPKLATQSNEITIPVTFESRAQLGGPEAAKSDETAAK
UniProt P42229: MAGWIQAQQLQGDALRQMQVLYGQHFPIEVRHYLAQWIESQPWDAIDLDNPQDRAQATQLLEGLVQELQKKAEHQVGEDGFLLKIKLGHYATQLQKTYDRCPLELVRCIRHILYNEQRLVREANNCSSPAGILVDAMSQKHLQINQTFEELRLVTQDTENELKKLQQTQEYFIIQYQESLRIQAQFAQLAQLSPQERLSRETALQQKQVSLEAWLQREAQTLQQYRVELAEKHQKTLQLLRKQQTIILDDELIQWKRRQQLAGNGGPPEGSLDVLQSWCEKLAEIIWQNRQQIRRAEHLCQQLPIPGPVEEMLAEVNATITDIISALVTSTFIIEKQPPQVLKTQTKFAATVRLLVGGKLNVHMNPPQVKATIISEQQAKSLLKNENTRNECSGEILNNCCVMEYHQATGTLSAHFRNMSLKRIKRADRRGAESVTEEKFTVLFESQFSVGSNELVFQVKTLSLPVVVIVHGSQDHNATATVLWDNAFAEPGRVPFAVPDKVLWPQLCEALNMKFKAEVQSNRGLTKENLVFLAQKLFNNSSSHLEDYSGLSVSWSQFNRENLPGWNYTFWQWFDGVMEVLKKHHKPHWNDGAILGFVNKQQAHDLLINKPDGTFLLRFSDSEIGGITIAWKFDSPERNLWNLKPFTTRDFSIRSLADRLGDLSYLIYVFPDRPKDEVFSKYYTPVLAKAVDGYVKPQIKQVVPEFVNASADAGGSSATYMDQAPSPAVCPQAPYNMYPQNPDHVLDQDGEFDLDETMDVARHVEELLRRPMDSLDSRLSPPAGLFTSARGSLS

Results are given in words; binding and its absence hold for the method and conditions named. In cells and extracts the contact can be indirect. Some entries that bind do so weakly or less than the wild type.

This experiment addresses HA-tagged HSP27 (UniProt P04792). The experiment is described as follows: co-IP; HEK293T transfected with HA-tagged HSP27 and Myc-tagged STAT5a or JAK2V617F, 24 h; IP 3 h with anti-HA, anti-Myc or anti-STAT5 or mouse IgG on Protein G beads; blots for STAT5, JAK2, HSP27.

As for “Myc-tagged STAT5a (from UniProt P42229 1-794)”, the binding result is “binds”.
